# Results: the supplement of paper PMC12067093, “Discovery and optimisation of a covalent ligand for TRIM25 and its application to targeted protein ubiquitination” (Chemical Science, 2025)
# Sequences of proteins named here, by UniProt entry; tags and fusion partners are left off. A change or cut given only in a name is not applied to a line headed by its entry.
# UniProt Q9Y3A5: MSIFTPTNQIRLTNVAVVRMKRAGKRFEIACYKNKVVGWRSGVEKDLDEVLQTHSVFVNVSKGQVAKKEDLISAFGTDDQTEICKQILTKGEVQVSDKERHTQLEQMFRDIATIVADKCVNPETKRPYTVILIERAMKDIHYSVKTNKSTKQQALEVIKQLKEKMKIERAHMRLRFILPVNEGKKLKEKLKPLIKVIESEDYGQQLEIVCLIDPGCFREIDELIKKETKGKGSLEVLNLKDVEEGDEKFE
# UniProt O94855: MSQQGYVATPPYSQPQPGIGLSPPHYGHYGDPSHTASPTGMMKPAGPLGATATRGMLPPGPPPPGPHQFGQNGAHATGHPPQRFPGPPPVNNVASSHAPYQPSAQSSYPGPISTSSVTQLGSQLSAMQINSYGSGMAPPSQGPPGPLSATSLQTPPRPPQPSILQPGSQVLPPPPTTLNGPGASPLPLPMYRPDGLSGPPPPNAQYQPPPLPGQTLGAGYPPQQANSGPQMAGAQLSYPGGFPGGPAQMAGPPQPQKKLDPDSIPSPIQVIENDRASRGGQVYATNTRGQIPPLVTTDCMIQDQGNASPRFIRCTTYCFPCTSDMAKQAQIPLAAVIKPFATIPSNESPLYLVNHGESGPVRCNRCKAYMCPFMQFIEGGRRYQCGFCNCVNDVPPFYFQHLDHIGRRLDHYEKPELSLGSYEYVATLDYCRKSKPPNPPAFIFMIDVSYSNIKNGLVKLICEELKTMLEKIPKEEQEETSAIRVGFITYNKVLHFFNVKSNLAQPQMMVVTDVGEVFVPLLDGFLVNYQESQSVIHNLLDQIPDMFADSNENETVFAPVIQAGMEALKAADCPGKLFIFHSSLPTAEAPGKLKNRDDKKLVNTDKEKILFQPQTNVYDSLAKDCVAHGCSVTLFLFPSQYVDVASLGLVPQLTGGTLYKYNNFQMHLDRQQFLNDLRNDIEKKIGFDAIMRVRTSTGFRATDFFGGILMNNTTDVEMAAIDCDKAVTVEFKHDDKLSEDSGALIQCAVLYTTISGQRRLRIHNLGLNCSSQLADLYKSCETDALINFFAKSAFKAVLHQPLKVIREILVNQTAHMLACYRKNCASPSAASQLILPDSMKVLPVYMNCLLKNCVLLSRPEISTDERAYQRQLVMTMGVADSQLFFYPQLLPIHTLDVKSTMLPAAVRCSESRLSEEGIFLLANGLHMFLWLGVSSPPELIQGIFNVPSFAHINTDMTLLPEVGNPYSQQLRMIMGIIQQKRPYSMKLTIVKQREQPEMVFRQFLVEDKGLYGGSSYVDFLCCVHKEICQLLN
# UniProt P31040: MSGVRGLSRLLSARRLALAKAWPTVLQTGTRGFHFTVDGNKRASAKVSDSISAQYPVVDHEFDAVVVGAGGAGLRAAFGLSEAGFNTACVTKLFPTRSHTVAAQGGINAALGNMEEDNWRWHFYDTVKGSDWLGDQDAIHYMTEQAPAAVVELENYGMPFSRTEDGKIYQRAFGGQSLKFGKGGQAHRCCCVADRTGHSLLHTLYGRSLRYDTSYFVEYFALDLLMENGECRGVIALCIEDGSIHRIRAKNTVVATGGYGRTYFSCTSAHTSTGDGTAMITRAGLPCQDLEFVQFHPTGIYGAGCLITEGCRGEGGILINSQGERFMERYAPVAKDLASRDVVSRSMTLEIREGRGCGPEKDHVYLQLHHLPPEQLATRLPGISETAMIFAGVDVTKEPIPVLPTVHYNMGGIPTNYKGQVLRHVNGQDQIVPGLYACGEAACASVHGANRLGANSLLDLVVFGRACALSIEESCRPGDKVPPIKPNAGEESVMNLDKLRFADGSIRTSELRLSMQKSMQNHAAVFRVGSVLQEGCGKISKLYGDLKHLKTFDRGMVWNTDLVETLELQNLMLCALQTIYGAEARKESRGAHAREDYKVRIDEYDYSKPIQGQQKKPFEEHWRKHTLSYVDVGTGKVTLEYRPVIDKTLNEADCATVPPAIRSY
# UniProt P22307: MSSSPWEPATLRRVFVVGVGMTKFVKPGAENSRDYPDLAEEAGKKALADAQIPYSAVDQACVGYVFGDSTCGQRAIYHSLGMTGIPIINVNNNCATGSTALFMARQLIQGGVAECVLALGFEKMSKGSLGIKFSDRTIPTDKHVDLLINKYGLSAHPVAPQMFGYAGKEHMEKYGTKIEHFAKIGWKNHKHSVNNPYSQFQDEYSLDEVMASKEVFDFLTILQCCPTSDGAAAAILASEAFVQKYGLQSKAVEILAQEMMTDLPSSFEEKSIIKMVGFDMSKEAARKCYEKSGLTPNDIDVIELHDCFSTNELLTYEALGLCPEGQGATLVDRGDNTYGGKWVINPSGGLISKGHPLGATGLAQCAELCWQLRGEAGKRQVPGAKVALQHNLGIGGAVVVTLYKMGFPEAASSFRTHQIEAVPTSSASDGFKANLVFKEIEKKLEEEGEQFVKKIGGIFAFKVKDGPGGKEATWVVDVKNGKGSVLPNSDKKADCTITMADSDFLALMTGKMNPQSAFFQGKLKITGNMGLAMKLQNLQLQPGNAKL
# UniProt Q15020: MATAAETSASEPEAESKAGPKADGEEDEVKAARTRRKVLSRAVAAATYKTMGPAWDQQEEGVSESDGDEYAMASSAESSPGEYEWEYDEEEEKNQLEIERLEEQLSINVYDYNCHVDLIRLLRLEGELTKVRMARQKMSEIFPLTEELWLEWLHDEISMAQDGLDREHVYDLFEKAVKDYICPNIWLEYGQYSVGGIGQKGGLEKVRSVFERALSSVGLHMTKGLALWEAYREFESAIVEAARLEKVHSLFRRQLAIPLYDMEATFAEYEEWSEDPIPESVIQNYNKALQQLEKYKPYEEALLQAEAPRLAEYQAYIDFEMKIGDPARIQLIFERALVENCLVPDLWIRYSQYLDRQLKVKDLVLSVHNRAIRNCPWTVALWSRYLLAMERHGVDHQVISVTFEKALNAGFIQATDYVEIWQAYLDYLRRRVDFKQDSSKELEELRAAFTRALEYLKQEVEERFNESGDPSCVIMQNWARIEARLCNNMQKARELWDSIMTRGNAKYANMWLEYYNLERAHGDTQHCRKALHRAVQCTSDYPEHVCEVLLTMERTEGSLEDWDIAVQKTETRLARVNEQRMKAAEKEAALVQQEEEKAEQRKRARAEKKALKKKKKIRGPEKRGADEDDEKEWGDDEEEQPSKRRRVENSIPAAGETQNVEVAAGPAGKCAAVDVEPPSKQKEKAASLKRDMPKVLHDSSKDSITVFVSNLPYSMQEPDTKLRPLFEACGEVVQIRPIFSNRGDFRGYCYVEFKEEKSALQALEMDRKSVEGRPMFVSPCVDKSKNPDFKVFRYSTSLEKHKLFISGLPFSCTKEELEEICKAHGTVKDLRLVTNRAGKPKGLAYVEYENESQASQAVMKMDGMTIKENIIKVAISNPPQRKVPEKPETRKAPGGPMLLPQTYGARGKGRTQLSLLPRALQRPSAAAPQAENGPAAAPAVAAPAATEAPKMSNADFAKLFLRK
# UniProt Q96NL6: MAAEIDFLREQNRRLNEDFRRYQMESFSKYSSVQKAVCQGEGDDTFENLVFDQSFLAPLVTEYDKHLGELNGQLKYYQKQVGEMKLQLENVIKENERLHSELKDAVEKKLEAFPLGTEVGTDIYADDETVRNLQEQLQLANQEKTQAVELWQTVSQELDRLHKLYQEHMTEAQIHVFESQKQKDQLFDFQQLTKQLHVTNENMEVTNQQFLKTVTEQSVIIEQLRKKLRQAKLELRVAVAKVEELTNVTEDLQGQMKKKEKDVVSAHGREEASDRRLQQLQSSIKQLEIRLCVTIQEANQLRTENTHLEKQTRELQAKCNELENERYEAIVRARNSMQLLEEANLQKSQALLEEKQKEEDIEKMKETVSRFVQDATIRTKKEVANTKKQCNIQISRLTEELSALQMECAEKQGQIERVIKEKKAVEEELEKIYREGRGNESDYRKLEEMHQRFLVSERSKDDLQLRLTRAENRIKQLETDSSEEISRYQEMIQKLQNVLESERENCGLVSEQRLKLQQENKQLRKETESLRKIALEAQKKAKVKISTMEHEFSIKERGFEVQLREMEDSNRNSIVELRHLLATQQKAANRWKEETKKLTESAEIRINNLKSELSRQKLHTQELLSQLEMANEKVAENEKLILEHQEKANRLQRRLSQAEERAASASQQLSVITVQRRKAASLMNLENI
# UniProt Q9UBV2: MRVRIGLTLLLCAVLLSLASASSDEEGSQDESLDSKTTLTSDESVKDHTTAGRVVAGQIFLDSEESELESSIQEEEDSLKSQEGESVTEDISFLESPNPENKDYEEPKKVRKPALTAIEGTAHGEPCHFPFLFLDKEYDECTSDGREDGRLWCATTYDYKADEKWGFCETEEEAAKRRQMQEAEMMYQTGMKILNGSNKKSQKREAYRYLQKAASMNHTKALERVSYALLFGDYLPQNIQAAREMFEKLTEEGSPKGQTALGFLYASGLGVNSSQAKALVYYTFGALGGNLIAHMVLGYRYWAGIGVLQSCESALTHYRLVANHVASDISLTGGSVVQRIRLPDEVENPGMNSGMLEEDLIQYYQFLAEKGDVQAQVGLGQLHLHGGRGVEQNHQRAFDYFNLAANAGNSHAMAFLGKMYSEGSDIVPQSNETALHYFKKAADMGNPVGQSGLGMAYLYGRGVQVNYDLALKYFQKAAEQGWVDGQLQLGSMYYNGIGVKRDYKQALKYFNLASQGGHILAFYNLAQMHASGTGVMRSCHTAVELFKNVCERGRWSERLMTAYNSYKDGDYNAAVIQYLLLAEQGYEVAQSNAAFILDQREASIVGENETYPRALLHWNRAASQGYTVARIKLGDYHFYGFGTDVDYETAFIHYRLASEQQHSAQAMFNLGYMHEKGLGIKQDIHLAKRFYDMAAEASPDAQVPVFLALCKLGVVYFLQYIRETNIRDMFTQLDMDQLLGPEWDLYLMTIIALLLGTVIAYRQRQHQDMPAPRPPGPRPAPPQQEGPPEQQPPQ
# UniProt A3KN83: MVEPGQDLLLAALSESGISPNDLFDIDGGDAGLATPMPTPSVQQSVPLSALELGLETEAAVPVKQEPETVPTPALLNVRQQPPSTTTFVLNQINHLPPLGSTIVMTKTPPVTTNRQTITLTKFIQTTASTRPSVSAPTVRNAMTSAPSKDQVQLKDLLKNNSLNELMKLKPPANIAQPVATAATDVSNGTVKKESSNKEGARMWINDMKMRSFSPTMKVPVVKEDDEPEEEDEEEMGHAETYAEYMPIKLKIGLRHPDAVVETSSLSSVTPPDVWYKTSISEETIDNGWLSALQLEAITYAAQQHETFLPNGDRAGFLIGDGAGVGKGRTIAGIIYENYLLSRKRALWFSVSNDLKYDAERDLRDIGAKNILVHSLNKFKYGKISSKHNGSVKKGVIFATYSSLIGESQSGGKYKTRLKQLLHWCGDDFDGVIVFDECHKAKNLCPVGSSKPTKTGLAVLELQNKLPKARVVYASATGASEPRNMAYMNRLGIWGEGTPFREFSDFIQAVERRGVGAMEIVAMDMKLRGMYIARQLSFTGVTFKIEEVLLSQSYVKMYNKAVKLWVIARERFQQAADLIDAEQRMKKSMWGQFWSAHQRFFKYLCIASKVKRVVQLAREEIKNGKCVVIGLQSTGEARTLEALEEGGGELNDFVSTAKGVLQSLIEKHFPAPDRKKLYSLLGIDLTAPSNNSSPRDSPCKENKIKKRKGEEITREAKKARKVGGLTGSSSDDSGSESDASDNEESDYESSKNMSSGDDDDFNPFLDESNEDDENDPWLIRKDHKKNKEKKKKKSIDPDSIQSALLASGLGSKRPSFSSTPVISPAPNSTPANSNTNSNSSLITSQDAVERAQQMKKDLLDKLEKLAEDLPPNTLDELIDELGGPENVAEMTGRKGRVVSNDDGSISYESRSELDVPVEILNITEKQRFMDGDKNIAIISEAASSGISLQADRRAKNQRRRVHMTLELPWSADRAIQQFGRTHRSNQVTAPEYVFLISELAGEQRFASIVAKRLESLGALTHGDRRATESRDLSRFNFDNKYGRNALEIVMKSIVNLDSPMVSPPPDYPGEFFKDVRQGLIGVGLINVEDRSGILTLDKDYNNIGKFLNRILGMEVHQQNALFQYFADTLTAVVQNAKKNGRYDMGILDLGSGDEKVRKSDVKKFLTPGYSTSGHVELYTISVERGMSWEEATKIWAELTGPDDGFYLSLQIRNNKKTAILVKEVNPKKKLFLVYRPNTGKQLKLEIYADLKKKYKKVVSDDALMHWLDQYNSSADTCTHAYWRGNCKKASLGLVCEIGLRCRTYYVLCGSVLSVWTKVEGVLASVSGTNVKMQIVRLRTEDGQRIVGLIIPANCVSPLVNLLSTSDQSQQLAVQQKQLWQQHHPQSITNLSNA
# UniProt Q9NR31: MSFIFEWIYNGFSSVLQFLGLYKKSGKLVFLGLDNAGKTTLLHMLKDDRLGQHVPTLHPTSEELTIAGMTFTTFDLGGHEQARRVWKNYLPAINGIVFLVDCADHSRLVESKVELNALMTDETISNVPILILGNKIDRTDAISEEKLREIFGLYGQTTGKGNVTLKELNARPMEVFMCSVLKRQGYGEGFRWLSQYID
# The list shows a part of the results.
# Compound: Cc1cc(ccc1-c1ccccc1)C(=O)N1CCCN(CC1)C(=O)CCl [compound 10]
# Test: probe-labelled cysteine peptide fold change vs DMSO (competition) (log2 fold change); higher = less target engagement (more negative = stronger competition)
# Settings: THP-1, incubation time: 4 h
# 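Also: competitive profiling in live THP-1 cells: cysteine peptides tagged with an iodoacetamide desthiobiotin (IA-DTB) probe, intensity after compound treatment relative to DMSO-treated cells.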
target,measurement,setting,value
SEPT2_Q15019_148+149_VHCCFYFISPFGHGLKPLDVAFMK (UniProt Q15019),probe-labelled cysteine peptide fold change,10 µM,-0.294
same,probe-labelled cysteine peptide fold change,50 µM,-0.329
SATB1_Q01826_209_ECPLSQSMISSIVNSTYYANVSAAK (UniProt Q01826),probe-labelled cysteine peptide fold change,10 µM,0.225
same,probe-labelled cysteine peptide fold change,50 µM,-0.391
SDK1_Q7Z5N4_126_LVLTCLAEGSWPLEFK (UniProt Q7Z5N4),probe-labelled cysteine peptide fold change,10 µM,0.0533
same,probe-labelled cysteine peptide fold change,50 µM,0.151
SBDS_Q9Y3A5_119_CVNPETK (UniProt Q9Y3A5),probe-labelled cysteine peptide fold change,10 µM,0.0999
same,probe-labelled cysteine peptide fold change,50 µM,0.155
SEC23B_Q15437_61+66_ERPDLPPVQYEPVLCSRPTCK (UniProt Q15437),probe-labelled cysteine peptide fold change,10 µM,-0.112
same,probe-labelled cysteine peptide fold change,50 µM,-0.579
SCAF11_Q99590_506_KLENTGIEANVLCLESEISENILEK (UniProt Q99590),probe-labelled cysteine peptide fold change,10 µM,-0.478
same,probe-labelled cysteine peptide fold change,50 µM,0.011
SAMSN1_Q9NSI8_165_DSFRLDDDGPYSGPFCGR (UniProt Q9NSI8),probe-labelled cysteine peptide fold change,10 µM,0.0998
same,probe-labelled cysteine peptide fold change,50 µM,-0.03
SEC24D_O94855_1028_EICQLLN (UniProt O94855),probe-labelled cysteine peptide fold change,10 µM,-0.0209
same,probe-labelled cysteine peptide fold change,50 µM,0.102
SDHA_P31040_438_HVNGQDQIVPGLYACGEAACASVHGANR (UniProt P31040),probe-labelled cysteine peptide fold change,10 µM,0.117
same,probe-labelled cysteine peptide fold change,50 µM,0.0834
SCP2_P22307_495_KADCTITMADSDFLALMTGK (UniProt P22307),probe-labelled cysteine peptide fold change,10 µM,0.142
same,probe-labelled cysteine peptide fold change,50 µM,0.0707
SEPHS2_Q99611_377_FGLLQGTSAETSGGLLICLPR (UniProt Q99611),probe-labelled cysteine peptide fold change,10 µM,-0.237
same,probe-labelled cysteine peptide fold change,50 µM,0.169
SEC24D_O94855_573_AADCPGK (UniProt O94855),probe-labelled cysteine peptide fold change,10 µM,0.0793
same,probe-labelled cysteine peptide fold change,50 µM,0.0012
SCRIB_Q14160_1082_DATHQEAVSALLRPCLELSLLVR (UniProt Q14160),probe-labelled cysteine peptide fold change,10 µM,0.188
same,probe-labelled cysteine peptide fold change,50 µM,-0.0996
SDR39U1_Q9NRG7_78_ITWDELAASGLPSCDAAVNLAGENILNPLRR (UniProt Q9NRG7),probe-labelled cysteine peptide fold change,10 µM,-0.0189
same,probe-labelled cysteine peptide fold change,50 µM,0.479
SCYL1_Q96KG9_309_SLDAFPEDFCR (UniProt Q96KG9),probe-labelled cysteine peptide fold change,10 µM,-0.0616
same,probe-labelled cysteine peptide fold change,50 µM,-0.0717
SCP2_P22307_365_GHPLGATGLAQCAELCWQLR (UniProt P22307),probe-labelled cysteine peptide fold change,10 µM,-1.02
same,probe-labelled cysteine peptide fold change,50 µM,-0.686
SATB2_Q9UPW6_246_VERENLSDYCVLGQRPMHLPNMNQLASLGK (UniProt Q9UPW6),probe-labelled cysteine peptide fold change,10 µM,-0.223
same,probe-labelled cysteine peptide fold change,50 µM,-0.659
SART3_Q15020_182_DYICPNIWLEYGQYSVGGIGQK (UniProt Q15020),probe-labelled cysteine peptide fold change,10 µM,0.208
same,probe-labelled cysteine peptide fold change,50 µM,0.164
SAMM50_Q9Y512_65_TKDDIIICEIGDVFK (UniProt Q9Y512),probe-labelled cysteine peptide fold change,10 µM,0.0115
same,probe-labelled cysteine peptide fold change,50 µM,0.203
SCLT1_Q96NL6_319_CNELENERYEAIVR (UniProt Q96NL6),probe-labelled cysteine peptide fold change,10 µM,0.115
same,probe-labelled cysteine peptide fold change,50 µM,0.253
SCAF11_Q99590_752_QMNENSVTHCSENNMPSSDLADEK (UniProt Q99590),probe-labelled cysteine peptide fold change,10 µM,0.0241
same,probe-labelled cysteine peptide fold change,50 µM,-0.283
SEMA4D_Q92854_370_PRPGACIDSEAR (UniProt Q92854),probe-labelled cysteine peptide fold change,10 µM,-0.224
same,probe-labelled cysteine peptide fold change,50 µM,-1.22
SEL1L_Q9UBV2_153_LWCATTYDYK (UniProt Q9UBV2),probe-labelled cysteine peptide fold change,10 µM,-0.068
same,probe-labelled cysteine peptide fold change,50 µM,0.446
SELENOO_Q9BVL4_629_LLETPYHCEAGAATDAEATEADGADGR (UniProt Q9BVL4),probe-labelled cysteine peptide fold change,10 µM,-0.157
same,probe-labelled cysteine peptide fold change,50 µM,-0.5
SEC24C_P53992_493_RVDAYDRPELSLGSYEFLATVDYCK (UniProt P53992),probe-labelled cysteine peptide fold change,10 µM,-0.0958
same,probe-labelled cysteine peptide fold change,50 µM,0.311
SEC24D_O94855_431_LDHYEKPELSLGSYEYVATLDYCR (UniProt O94855),probe-labelled cysteine peptide fold change,10 µM,0.288
same,probe-labelled cysteine peptide fold change,50 µM,0.0811
SDHA_P31040_475_ACALSIEESCRPGDK (UniProt P31040),probe-labelled cysteine peptide fold change,10 µM,0.0324
same,probe-labelled cysteine peptide fold change,50 µM,0.402
SCLT1_Q96NL6_506_LQNVLESERENCGLVSEQR (UniProt Q96NL6),probe-labelled cysteine peptide fold change,10 µM,-0.0949
same,probe-labelled cysteine peptide fold change,50 µM,-0.21
SBNO1_A3KN83_425_QLLHWCGDDFDGVIVFDECHK (UniProt A3KN83),probe-labelled cysteine peptide fold change,10 µM,0.101
same,probe-labelled cysteine peptide fold change,50 µM,0.00827
SAR1A_Q9NR31_178_PMEVFMCSVLK (UniProt Q9NR31),probe-labelled cysteine peptide fold change,10 µM,-0.033
same,probe-labelled cysteine peptide fold change,50 µM,0.00755
SBNO1_A3KN83_1277_VVSDDALMHWLDQYNSSADTCTHAYWR (UniProt A3KN83),probe-labelled cysteine peptide fold change,10 µM,0.0541
same,probe-labelled cysteine peptide fold change,50 µM,-0.0901
SEC24D_O94855_388+390_YQCGFCNCVNDVPPFYFQHLDHIGR (UniProt O94855),probe-labelled cysteine peptide fold change,10 µM,-0.163
same,probe-labelled cysteine peptide fold change,50 µM,-0.303
SEC24C_P53992_910_LLPVYLNCVLK (UniProt P53992),probe-labelled cysteine peptide fold change,10 µM,-0.0639
same,probe-labelled cysteine peptide fold change,50 µM,-0.08
SENP6_Q9GZR1_127_KLSENTQNTSLCSGTVVHGR (UniProt Q9GZR1),probe-labelled cysteine peptide fold change,10 µM,-0.0334
same,probe-labelled cysteine peptide fold change,50 µM,-0.339
SEMA4A_Q9H3S1_547_GNPEWACASGPMSR (UniProt Q9H3S1),probe-labelled cysteine peptide fold change,10 µM,-0.0882
same,probe-labelled cysteine peptide fold change,50 µM,-0.865
SEC16A_O15027_107_DSSQGPCEPLPGPLTQPR (UniProt O15027),probe-labelled cysteine peptide fold change,10 µM,-0.262
same,probe-labelled cysteine peptide fold change,50 µM,-0.217
SBNO2_Q9Y2G9_908_ALHCVLTTILSQTENK (UniProt Q9Y2G9),probe-labelled cysteine peptide fold change,10 µM,0.0907
same,probe-labelled cysteine peptide fold change,50 µM,-0.477
SAR1A_Q9NR31_178_ELNARPMEVFMCSVLKR (UniProt Q9NR31),probe-labelled cysteine peptide fold change,10 µM,-0.257
same,probe-labelled cysteine peptide fold change,50 µM,-0.823
SDSL_Q96GA7_296_LQAEGCLPPSLTSVVVIVCGGNNINSR (UniProt Q96GA7),probe-labelled cysteine peptide fold change,10 µM,-0.27
same,probe-labelled cysteine peptide fold change,50 µM,-0.105
SART3_Q15020_729_LRPLFEACGEVVQIRPIFSNR (UniProt Q15020),probe-labelled cysteine peptide fold change,10 µM,0.0638
same,probe-labelled cysteine peptide fold change,50 µM,0.203
SEL1L_Q9UBV2_141_EYDECTSDGREDGR (UniProt Q9UBV2),probe-labelled cysteine peptide fold change,10 µM,0.0618
same,probe-labelled cysteine peptide fold change,50 µM,0.0245
SATB1_Q01826_78_GTMLPVFCVVEHYENAIEYDCKEEHAEFVLVRK (UniProt Q01826),probe-labelled cysteine peptide fold change,10 µM,-0.162
same,probe-labelled cysteine peptide fold change,50 µM,-0.151
SATB1_Q01826_78_KGTMLPVFCVVEHYENAIEYDCK (UniProt Q01826),probe-labelled cysteine peptide fold change,10 µM,0.178
same,probe-labelled cysteine peptide fold change,50 µM,0.501
SEC24B_O95487_562_CTLTNIPQTQALLNK (UniProt O95487),probe-labelled cysteine peptide fold change,10 µM,0.254
same,probe-labelled cysteine peptide fold change,50 µM,0.239

# For convenience, part of the list above:
target,measurement,setting,value
SBNO1_A3KN83_1277_VVSDDALMHWLDQYNSSADTCTHAYWR (UniProt A3KN83),probe-labelled cysteine peptide fold change,50 µM,-0.0901
SEC24D_O94855_388+390_YQCGFCNCVNDVPPFYFQHLDHIGR (UniProt O94855),probe-labelled cysteine peptide fold change,10 µM,-0.163
same,probe-labelled cysteine peptide fold change,50 µM,-0.303
SEC24C_P53992_910_LLPVYLNCVLK (UniProt P53992),probe-labelled cysteine peptide fold change,10 µM,-0.0639
same,probe-labelled cysteine peptide fold change,50 µM,-0.08
SENP6_Q9GZR1_127_KLSENTQNTSLCSGTVVHGR (UniProt Q9GZR1),probe-labelled cysteine peptide fold change,10 µM,-0.0334
